We go through 2 molecules from article PMC8157631.

Amino acid sequences for entries named in this document (tags omitted). Residues count along the entry.
UniProt Q00604, residues 25-133: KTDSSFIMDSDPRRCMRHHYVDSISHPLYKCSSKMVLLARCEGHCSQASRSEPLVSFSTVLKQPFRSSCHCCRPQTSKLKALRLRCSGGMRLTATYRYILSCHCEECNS

No constants are given. Whether binding was seen depends on the method and setting. Binding seen in cells or lysates may run through a third protein. Where a sequence is shown, tags or fusion partners need not be part of it.

Experiment [1] deals with T1, Retinoschisin (RS1) (human (endogenous in human retina)) (UniProt O15537).
T1 sequence: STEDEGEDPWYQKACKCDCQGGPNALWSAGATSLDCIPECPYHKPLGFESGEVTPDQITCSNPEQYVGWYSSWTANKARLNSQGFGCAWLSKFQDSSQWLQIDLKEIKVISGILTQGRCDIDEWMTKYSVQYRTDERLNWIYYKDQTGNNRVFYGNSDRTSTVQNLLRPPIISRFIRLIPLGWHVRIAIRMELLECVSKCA
Kind of experiment: co-IP; co-immunoprecipitation from human donor retinal tissue with RS1 or NDP antibody, immunoblot of the IP fraction.

Experiment [2] deals with Norrin (NDP) (human (endogenous in human retina)) (UniProt Q00604). Described as above.

Turning to “Norrin (NDP) (from UniProt Q00604 25-133)”, the binding result in experiment [1] is reported as “no binding”.

B1: Retinoschisin (RS1) (protein, UniProt O15537 24-224)
chain: STEDEGEDPWYQKACKCDCQGGPNALWSAGATSLDCIPECPYHKPLGFESGEVTPDQITCSNPEQYVGWYSSWTANKARLNSQGFGCAWLSKFQDSSQWLQIDLKEIKVISGILTQGRCDIDEWMTKYSVQYRTDERLNWIYYKDQTGNNRVFYGNSDRTSTVQNLLRPPIISRFIRLIPLGWHVRIAIRMELLECVSKCA
Consider B1, for which, in experiment [2], the binding result is “no binding”.
